Data: paper PMC12462922
These are yes or no findings as the source states them, for the method shown. Binding seen in cells or lysates may run through a third protein. Some results given as binding are weak or reduced against the parent protein; the word gives no strength. Tags and fused reporters may be left off the sequences shown.

Protein sequences, listed by entry. Tags and fused reporters are not part of them.
UniProt Q91W98: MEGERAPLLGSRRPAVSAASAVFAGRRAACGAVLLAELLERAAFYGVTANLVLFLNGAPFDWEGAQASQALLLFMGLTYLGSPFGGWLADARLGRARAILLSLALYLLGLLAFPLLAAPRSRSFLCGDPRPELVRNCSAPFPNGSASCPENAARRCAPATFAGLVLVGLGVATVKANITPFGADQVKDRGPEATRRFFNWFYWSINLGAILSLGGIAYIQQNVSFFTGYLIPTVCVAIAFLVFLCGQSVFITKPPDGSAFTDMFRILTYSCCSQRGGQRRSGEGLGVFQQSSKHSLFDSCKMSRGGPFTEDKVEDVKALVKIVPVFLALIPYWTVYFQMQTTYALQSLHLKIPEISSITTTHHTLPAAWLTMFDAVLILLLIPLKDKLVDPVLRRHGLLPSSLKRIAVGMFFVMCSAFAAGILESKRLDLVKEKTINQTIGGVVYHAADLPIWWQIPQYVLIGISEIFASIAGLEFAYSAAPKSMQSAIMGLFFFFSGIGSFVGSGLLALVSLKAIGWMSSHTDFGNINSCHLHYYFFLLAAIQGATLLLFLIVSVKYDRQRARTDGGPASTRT

Columns and labels:
SLC15A4-FLAG (mouse) = SLC15A4-FLAG (mouse) (UniProt Q91W98); assay: co-IP; HEK293T cells co-transfected with plasmids encoding SLC15A3-HA, SLC15A4-FLAG and TASL-MYC; cell extracts; Pierce Crosslink Magnetic IP/Co-IP Kit; blots with antibodies against HA, MYC, FLAG
SLC15A3-HA (mouse) = target: T1, SLC15A3-HA (mouse) (UniProt Q8BPX9); assay: as above
T1 sequence: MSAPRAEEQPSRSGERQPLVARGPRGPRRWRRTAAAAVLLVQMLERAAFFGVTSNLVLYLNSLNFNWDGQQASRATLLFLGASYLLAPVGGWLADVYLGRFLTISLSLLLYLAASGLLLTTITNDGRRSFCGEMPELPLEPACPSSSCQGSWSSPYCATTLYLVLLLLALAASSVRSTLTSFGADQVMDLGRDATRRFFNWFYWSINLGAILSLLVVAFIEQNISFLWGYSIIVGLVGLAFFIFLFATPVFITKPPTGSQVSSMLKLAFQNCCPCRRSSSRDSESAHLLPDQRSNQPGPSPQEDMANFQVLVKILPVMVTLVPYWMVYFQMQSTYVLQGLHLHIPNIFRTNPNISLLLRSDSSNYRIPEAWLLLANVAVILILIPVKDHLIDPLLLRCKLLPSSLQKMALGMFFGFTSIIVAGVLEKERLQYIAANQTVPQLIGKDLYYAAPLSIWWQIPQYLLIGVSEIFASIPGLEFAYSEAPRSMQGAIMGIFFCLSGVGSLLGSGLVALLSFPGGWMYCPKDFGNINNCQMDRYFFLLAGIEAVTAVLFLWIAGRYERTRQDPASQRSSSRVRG

B1: TASL-MYC (protein, UniProt Q9D3J9 1-298)
chain: MLSEGYLSGLTYWNDIHWNCASYNEPVAGDQGKETSSVAALSYSSVDETQVQSLYVSCKSSGKFISSVHARASQHSRSQSRTVLQANSNPVFESPTLAAVGICRDVIRETYLVPPSCKSICKNYNDLHIAGGQVMAINSVMANFPSESSFEDGPLLKSSEISLSMEDSTSTQLTELPLKPIQRYSSYWRITSIKEKSSLQMQKPISNAVLNEYLEQKVVELYKQYIMDTVFHDSSPTQILASEFIMTNVDQISLQVSKEKNLDTSKVKDIVISHLLQLVSSEISTPSLHISQYSNITP
B1 was tested, and the binding (SLC15A4-FLAG (mouse)) was “binds” and the binding (SLC15A3-HA (mouse)) was “binds”.
